Assay results from paper PMC3610028.
Results are given in words; binding and its absence hold for the method and conditions named. In cells and extracts the contact can be indirect. Some binding calls cover weakened binding; strength is not graded here. Tags and fused reporters may be left off the sequences shown.

Protein sequences, listed by entry. Tags and fused reporters are not part of them. Lines headed by an entry give the natural chain unless they say otherwise; changes in a name come on top.
UniProt Q9Q0L6: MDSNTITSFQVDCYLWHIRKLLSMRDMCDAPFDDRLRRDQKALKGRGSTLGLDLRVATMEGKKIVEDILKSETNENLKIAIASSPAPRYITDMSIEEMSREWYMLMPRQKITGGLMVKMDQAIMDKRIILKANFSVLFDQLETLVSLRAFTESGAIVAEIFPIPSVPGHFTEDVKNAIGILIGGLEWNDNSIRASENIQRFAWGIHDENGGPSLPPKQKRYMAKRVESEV

Molecular target: T1, Flag-NOLC1 fusion protein (nucleolar and coiled-body phosphoprotein 1) (human) (UniProt Q14978)
T1 sequence: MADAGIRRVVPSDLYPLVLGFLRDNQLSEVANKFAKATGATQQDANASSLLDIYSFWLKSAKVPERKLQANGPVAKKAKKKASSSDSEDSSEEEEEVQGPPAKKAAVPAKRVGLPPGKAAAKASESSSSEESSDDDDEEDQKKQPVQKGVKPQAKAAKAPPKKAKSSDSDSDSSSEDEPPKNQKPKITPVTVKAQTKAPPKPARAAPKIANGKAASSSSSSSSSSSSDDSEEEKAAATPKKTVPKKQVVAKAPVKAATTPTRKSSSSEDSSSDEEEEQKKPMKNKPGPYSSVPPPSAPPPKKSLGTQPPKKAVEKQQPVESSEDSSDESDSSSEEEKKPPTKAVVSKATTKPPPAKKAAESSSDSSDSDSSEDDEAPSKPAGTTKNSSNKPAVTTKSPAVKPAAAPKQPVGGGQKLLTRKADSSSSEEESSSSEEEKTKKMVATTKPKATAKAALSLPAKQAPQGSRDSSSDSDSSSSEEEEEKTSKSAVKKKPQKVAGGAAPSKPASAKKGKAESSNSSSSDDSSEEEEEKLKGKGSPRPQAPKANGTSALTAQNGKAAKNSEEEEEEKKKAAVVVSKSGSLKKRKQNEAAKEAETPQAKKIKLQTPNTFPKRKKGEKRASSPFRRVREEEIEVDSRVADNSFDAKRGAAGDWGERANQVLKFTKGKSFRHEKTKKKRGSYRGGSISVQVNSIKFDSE
Assay: co-IP

Substance	binding
NS1-ED (74-230 aa), C-terminal effector domain of NS1, EGFP fusion (pEGFP-N1-NS1-ED) (from UniProt Q9Q0L6 74-230) (domain or fragment)	binds
EGFP-NS1 fusion protein (pEGFP-N1-NS1) (from UniProt Q9Q0L6 1-230)	binds
